Values from PubChem BioAssay AID504774 (Drosophila RNAi Screening Center, 2011)
In all, the deposit lists about 23,000 reagents; below is a random part of those with a known target gene and a result. 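Values are quantile-normalised luminescence on an arbitrary scale; higher means more cells surviving MMS.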 The numbers tell different reagents against one gene apart. Names joined by + are all predicted targets of the reagent. No sequences are given here.

- Screen: 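Fly genes whose loss alters survival after alkylation damage to DNA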 (primary screen)
- System: Drosophila Kc167 cells
- Reagents: long dsRNA against Drosophila genes, about 0.25 µg dsRNA per well
- Time to read-out: about 6 days: 3 days knock-down, then 3 days with or without MMS
- Challenge: methyl methanesulphonate 0.004% (w/v) for 3 days after knock-down
- Read-out: 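ATP-dependent luminescence as a measure of live cells in MMS-exposed wells, quantile normalised within each plate, with replicate values also given as a mean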
- Direction: mean viability with MMS and viability with MMS: higher = more surviving cells after MMS

no.	target	dsRNA no.	mean viability with MMS	viability with MMS, replicate 1	viability with MMS, replicate 2
1	Vdup1	1	3.57e6	4.01e6	4.07e6
2	CG13506	1	3.35e6	3.84e6	3.67e6
3	CG1671	1	3.57e6	4.06e6	4.04e6
4	CG13562	1	3.41e6	3.92e6	3.77e6
5	Hs2st	1	3.70e6	4.16e6	4.28e6
6	mwh	1	3.61e6	4.17e6	3.98e6
7	pyr	1	3.45e6	3.90e6	3.84e6
8	pyr	2	3.58e6	4.09e6	4.00e6
9	CG10804	1	3.56e6	4.00e6	4.08e6
10	CG10809	1	3.77e6	4.18e6	4.27e6
11	snRNP-U1-C	1	3.22e6	3.68e6	3.75e6
12	Panx	1	3.60e6	4.15e6	4.01e6
13	RpS15Ab + RpS15Aa	1	2.69e6	3.56e6	3.57e6
14	RpS15Ab + RpS15Aa	2	2.92e6	3.64e6	3.63e6
15	CG15345 (retired record)	1	3.63e6	4.17e6	4.07e6
16	CG15345 (retired record)	2	3.53e6	4.03e6	3.98e6
17	CG31683 + CG18858	1	3.62e6	4.15e6	4.08e6
18	CG42329	1	3.56e6	4.10e6	3.98e6
19	CG42329	2	3.57e6	4.12e6	3.99e6
20	Sec24CD	1	3.32e6	3.68e6	3.72e6
21	CG7214	1	3.81e6	4.23e6	4.43e6
22	CG7214	2	3.61e6	3.94e6	4.20e6
23	CG1074	1	3.61e6	3.95e6	4.23e6
24	CG15452	1	3.53e6	4.01e6	4.01e6
25	abo	1	3.60e6	4.19e6	3.97e6
26	HSPC300	1	3.43e6	3.89e6	3.97e6
27	CG33093	1	1.91e6	4.11e6	4.04e6
28	ND5 (retired record)	1	3.37e6	3.82e6	3.81e6
29	CG5535	1	3.71e6	4.26e6	4.07e6
30	CG10991 (retired record)	1	3.67e6	4.06e6	4.23e6
31	CG42675	1	3.45e6	3.86e6	3.93e6
32	CG42675	2	3.48e6	4.02e6	3.88e6
33	CG6845	1	3.49e6	3.90e6	4.00e6
34	l(2)k09022	1	3.19e6	3.40e6	3.63e6
35	CG18469	1	3.43e6	3.92e6	3.92e6
36	CG32718	1	3.52e6	4.04e6	3.95e6
37	CG13516	1	3.67e6	4.16e6	4.16e6
38	CG8547	1	3.56e6	3.91e6	4.19e6
39	CG2004	1	3.49e6	3.91e6	4.02e6
40	Doc2	1	3.35e6	3.90e6	3.84e6
41	Art6	1	3.44e6	3.95e6	3.84e6
42	CG9649	1	3.62e6	3.92e6	4.31e6
43	CG3939	1	3.45e6	3.85e6	3.97e6
44	Snx6	1	3.65e6	4.18e6	4.12e6
45	qjt	1	3.47e6	3.94e6	3.90e6
46	CG14762	1	3.58e6	4.06e6	4.08e6
47	CG14762	2	3.57e6	4.12e6	3.95e6
48	Sys1	1	3.70e6	4.11e6	4.22e6
49	CG5421	1	3.65e6	4.15e6	4.09e6
50	NimC1	1	3.56e6	4.04e6	4.04e6
51	CG5043	1	3.53e6	3.99e6	4.01e6
52	Ack	1	3.48e6	3.98e6	3.91e6
53	CG10859	1	3.36e6	3.82e6	3.72e6
54	CG1236	1	3.58e6	3.98e6	4.17e6
55	Rs1	1	3.46e6	3.87e6	3.95e6
56	wam	1	3.56e6	4.07e6	4.00e6
57	CG13026	1	3.51e6	3.96e6	3.99e6
58	CG10376	1	3.60e6	4.06e6	4.14e6
59	CG10576	1	3.58e6	3.98e6	4.16e6
60	boil	1	3.56e6	4.04e6	4.06e6
61	Ubc6	1	3.50e6	3.93e6	3.98e6
62	lin-52	1	3.66e6	4.41e6	3.89e6
63	Psn	1	3.69e6	4.15e6	4.14e6
64	CG15740	1	2.92e6	3.63e6	3.64e6
65	CG15740	2	3.58e6	4.05e6	4.08e6
66	CG13458	1	3.70e6	4.32e6	4.01e6
67	mei-217 + mei-218	1	3.59e6	4.03e6	4.10e6
68	CG33143	1	3.88e6	4.27e6	4.34e6
69	CG33143	2	3.46e6	3.79e6	4.02e6
70	Targ1	1	3.57e6	4.02e6	4.06e6
71	ftz	1	3.61e6	4.11e6	4.07e6
72	Cpr56F	1	3.53e6	4.08e6	3.92e6
73	CG10737	1	3.62e6	4.12e6	4.09e6
74	Drice	1	3.71e6	4.22e6	4.16e6
75	MsR2 + CG13802 (retired record)	1	3.66e6	4.07e6	4.17e6
76	MsR2 + CG13802 (retired record)	2	3.62e6	4.10e6	4.07e6
77	MsR2 + CG13802 (retired record)	3	3.66e6	4.15e6	4.07e6
78	L2HGDH	1	3.61e6	4.14e6	4.08e6
79	Cipc	1	3.67e6	4.12e6	4.17e6
80	Cipc	2	3.47e6	3.94e6	3.91e6
81	CG14502	1	3.53e6	4.01e6	3.99e6
82	CG10934	1	3.59e6	3.96e6	4.18e6
83	NitFhit	1	3.56e6	4.07e6	3.98e6
84	CG8157	1	3.88e6	4.00e6	4.63e6
85	CG8157	2	3.50e6	3.94e6	4.03e6
86	CG6191	1	3.40e6	3.88e6	3.78e6
87	CG6191	2	3.72e6	4.37e6	4.07e6

8 entries already listed, arranged by “mean viability with MMS”, lowest first.
target	dsRNA no.	mean viability with MMS	viability with MMS, replicate 1	viability with MMS, replicate 2
Doc2	1	3.35e6	3.90e6	3.84e6
Art6	1	3.44e6	3.95e6	3.84e6
CG3939	1	3.45e6	3.85e6	3.97e6
qjt	1	3.47e6	3.94e6	3.90e6
CG2004	1	3.49e6	3.91e6	4.02e6
CG8547	1	3.56e6	3.91e6	4.19e6
CG9649	1	3.62e6	3.92e6	4.31e6
Snx6	1	3.65e6	4.18e6	4.12e6
